Data: US20170044222A1, “Anti-Microbial Coatings and Devices” (priority 2015, published 2017)
Some of these results come from one statement about several compounds together. Part of at least one peptide drawing is inferred or uncertain, most often the ends. Ends that are not written are not given here.

Tested on: human primary fibroblast cell line
Test: Cytotoxicity against human primary fibroblasts (AlamarBlue / MTT)
Type: cell-based
Details: peptide in solution

Sequence | concentration toxic to human fibroblasts
CFFGWLIKGAIHAGKAIHGLIHRRRH [C-CHY1, N-terminus cysteine-modified Chrysophsin-1] | above 10 μM
MFFGWLIKGAIHAGKAIHGLIHRRRH [M-CHY1, N-terminus methionine-modified Chrysophsin-1] | above 10 μM
